# From the supplement of paper PMC8728848
# The list shows a part of the results.
# B1: cFel (Cyprinus carpio), P68512 (protein)
# chain: LDCTVIDGNLKQIDAGSGSVVGVNNLNETFVLIDNVFTKISGSLKHFSVGPAGQLGVNTANNIFKYQSGGFVQLAGLLKQVDAGGDQIIAGVNMYDDIYCLNMDANNKWPSSNTPWVQINGKLKYYSCGPYSCWGVNSNDQIFIMKDVSSNVCSGSGSFINIPGLLSMIEVATDGSVFGVNSQGNLYQRTGVTRSKPDGTDWISMVACPNGHKHVSFDLGVLWLVCVDGSIRKCILTD
# How the values were obtained:
# Test in all cases: glycan array binding signal (z-score within array); higher = stronger binding
# Conditions in all cases: glycan notation: IUPAC condensed, linker removed
# [1] = molecular target: Gal(b1-3)GlcNAc(b1-6)GalNAc
# Summary of the method: (§1)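 Glycan array data came from 3228 arrays in the Consortium for Functional Glycomics database, and only arrays with an available protein sequence were kept. Glycan names were put into IUPAC-condensed notation, and columns mapping to the same glycan were averaged. The binding signal is a within-array Z-score, averaged across arrays of one protein sequence run at different concentrations or buffers and across linkers. A negative Z-score can be read as non-binding.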
# [2] = molecular target: Gal(b1-3)GlcNAc(b1-6)[Gal(b1-3)]GalNAc
# Summary of the method: as §1
# Gal(b1-3)GlcNAc6S = molecular target: Gal(b1-3)GlcNAc6S
# Summary of the method: as §1
# [3] = molecular target: Gal(b1-3)[Fuc(a1-4)]GlcNAc
# Summary of the method: as §1
# [4] = molecular target: Gal(b1-3)[Fuc(a1-4)]GlcNAc(b1-2)Man
# Summary of the method: as §1
# [5] = molecular target: Gal(b1-3)[Fuc(a1-4)]GlcNAc(b1-2)Man(a1-3)[Gal(b1-3)[Fuc(a1-4)]GlcNAc(b1-2)Man(a1-6)]Man(b1-4)GlcNAc(b1-4)[Fuc(a1-6)]GlcNAc
# Summary of the method: as §1
# [6] = molecular target: Gal(b1-3)[Fuc(a1-4)]GlcNAc(b1-3)Gal(b1-3)[Fuc(a1-4)]GlcNAc
# Summary of the method: as §1
# [7] = molecular target: Gal(b1-3)[Fuc(a1-4)]GlcNAc(b1-3)Gal(b1-4)[Fuc(a1-3)]GlcNAc
# Summary of the method: as §1
# [8] = molecular target: Gal(b1-3)[Fuc(a1-4)]GlcNAc(b1-6)GalNAc
# Summary of the method: as §1
# [9] = molecular target: Gal(b1-3)[GlcNAc(b1-6)]GalNAc
# Summary of the method: as §1
# [10] = molecular target: Gal(b1-3)[Neu5Ac(a2-6)]GalNAc
# Summary of the method: as §1
# [11] = molecular target: Gal(b1-3)[Neu5Ac(a2-6)]GlcNAc(b1-4)Gal(b1-4)Glc
# Summary of the method: as §1
# [12] = molecular target: Gal(b1-3)[Neu5Ac(b2-6)]GalNAc
# Summary of the method: as §1
# Gal(b1-4)Gal = molecular target: Gal(b1-4)Gal
# Summary of the method: as §1
# [13] = molecular target: Gal(b1-4)GalNAc(a1-3)[Fuc(a1-2)]Gal(b1-4)GlcNAc
# Summary of the method: as §1
# [14] = molecular target: Gal(b1-4)GalNAc(b1-3)[Fuc(a1-2)]Gal(b1-4)GlcNAc
# Summary of the method: as §1
# Gal(b1-4)Glc = molecular target: Gal(b1-4)Glc
# Summary of the method: as §1
# Gal(b1-4)Glc6S = molecular target: Gal(b1-4)Glc6S
# Summary of the method: as §1
# Gal(b1-4)GlcNAc = molecular target: Gal(b1-4)GlcNAc
# Summary of the method: as §1
# [15] = molecular target: Gal(b1-4)GlcNAc(a1-6)Gal(b1-4)GlcNAc
# Summary of the method: as §1
# Gal(b1-4)GlcNAc(b1-2)Man = molecular target: Gal(b1-4)GlcNAc(b1-2)Man
# Summary of the method: as §1
# [16] = molecular target: Gal(b1-4)GlcNAc(b1-2)Man(a1-3)Man(b1-4)GlcNAc(b1-4)GlcNAc
# Summary of the method: as §1
# [17] = molecular target: Gal(b1-4)GlcNAc(b1-2)Man(a1-3)[Gal(b1-4)GlcNAc(b1-2)Man(a1-6)]Man(b1-4)GlcNAc(b1-4)GlcNAc
# Summary of the method: as §1
# [18] = molecular target: Gal(b1-4)GlcNAc(b1-2)Man(a1-3)[Gal(b1-4)GlcNAc(b1-2)Man(a1-6)]Man(b1-4)GlcNAc(b1-4)[Fuc(a1-6)]GlcNAc
# Summary of the method: as §1
# [19] = molecular target: Gal(b1-4)GlcNAc(b1-2)Man(a1-3)[Gal(b1-4)GlcNAc(b1-2)Man(a1-6)][Gal(b1-4)GlcNAc(b1-4)]Man(b1-4)GlcNAc(b1-4)[Fuc(a1-6)]GlcNAc
# Summary of the method: as §1
# [20] = molecular target: Gal(b1-4)GlcNAc(b1-2)Man(a1-3)[Gal(b1-4)GlcNAc(b1-2)Man(a1-6)][GlcNAc(b1-4)]Man(b1-4)GlcNAc(b1-4)[Fuc(a1-6)]GlcNAc
# Summary of the method: as §1
# [21] = molecular target: Gal(b1-4)GlcNAc(b1-2)Man(a1-3)[GlcNAc(b1-2)Man(a1-6)]Man(b1-4)GlcNAc(b1-4)GlcNAc
# Summary of the method: as §1
# [22] = molecular target: Gal(b1-4)GlcNAc(b1-2)Man(a1-3)[GlcNAc(b1-4)][Gal(b1-4)GlcNAc(b1-2)Man(a1-6)]Man(b1-4)GlcNAc(b1-4)GlcNAc
# Summary of the method: as §1
# [23] = molecular target: Gal(b1-4)GlcNAc(b1-2)Man(a1-3)[Man(a1-6)]Man(b1-4)GlcNAc(b1-4)GlcNAc
# Summary of the method: as §1
# [24] = molecular target: Gal(b1-4)GlcNAc(b1-2)Man(a1-6)Man(b1-4)GlcNAc(b1-4)GlcNAc
# Summary of the method: as §1
# [25] = molecular target: Gal(b1-4)GlcNAc(b1-2)Man(a1-6)[GlcNAc(b1-2)Man(a1-3)]Man(b1-4)GlcNAc(b1-4)GlcNAc
# Summary of the method: as §1
# [26] = molecular target: Gal(b1-4)GlcNAc(b1-2)Man(a1-6)[Man(a1-3)]Man(b1-4)GlcNAc(b1-4)GlcNAc
# Summary of the method: as §1
# [27] = molecular target: Gal(b1-4)GlcNAc(b1-2)[Gal(b1-4)GlcNAc(b1-4)]Man(a1-3)[Gal(b1-4)GlcNAc(b1-2)Man(a1-6)]Man(b1-4)GlcNAc(b1-4)GlcNAc
# Summary of the method: as §1
# [28] = molecular target: Gal(b1-4)GlcNAc(b1-2)[Gal(b1-4)GlcNAc(b1-4)]Man(a1-3)[Gal(b1-4)GlcNAc(b1-2)[Gal(b1-4)GlcNAc(b1-6)]Man(a1-6)]Man(b1-4)GlcNAc(b1-4)GlcNAc
# Summary of the method: as §1
# [29] = molecular target: Gal(b1-4)GlcNAc(b1-2)[Gal(b1-4)GlcNAc(b1-4)]Man(a1-3)[GlcNAc(b1-4)][Gal(b1-4)GlcNAc(b1-2)Man(a1-6)]Man(b1-4)GlcNAc(b1-4)GlcNAc
# Summary of the method: as §1
# [30] = molecular target: Gal(b1-4)GlcNAc(b1-2)[Gal(b1-4)GlcNAc(b1-4)]Man(a1-3)[GlcNAc(b1-4)][Gal(b1-4)GlcNAc(b1-2)[Gal(b1-4)GlcNAc(b1-6)]Man(a1-6)]Man(b1-4)GlcNAc(b1-4)GlcNAc
# Summary of the method: as §1
# [31] = molecular target: Gal(b1-4)GlcNAc(b1-2)[Gal(b1-4)GlcNAc(b1-6)]Man(a1-6)[Gal(b1-4)GlcNAc(b1-2)Man(a1-3)]Man(b1-4)GlcNAc(b1-4)GlcNAc
# Summary of the method: as §1
# [32] = molecular target: Gal(b1-4)GlcNAc(b1-2)[Gal(b1-4)GlcNAc(b1-6)]Man(a1-6)[Gal(b1-4)GlcNAc(b1-2)Man(a1-3)]Man(b1-4)GlcNAc(b1-4)[Fuc(a1-6)]GlcNAc
# Summary of the method: as §1
# [33] = molecular target: Gal(b1-4)GlcNAc(b1-2)[Gal(b1-4)GlcNAc(b1-6)]Man(a1-6)[GlcNAc(b1-4)][Gal(b1-4)GlcNAc(b1-2)Man(a1-3)]Man(b1-4)GlcNAc(b1-4)GlcNAc
# Summary of the method: as §1
# [34] = molecular target: Gal(b1-4)GlcNAc(b1-2)[Gal(b1-4)GlcNAc(b1-6)]Man(a1-6)[GlcNAc(b1-4)][Gal(b1-4)GlcNAc(b1-2)[Gal(b1-4)GlcNAc(b1-4)]Man(a1-3)]Man(b1-4)GlcNAc(b1-4)[Fuc(a1-6)]GlcNAc
# Summary of the method: as §1
# [35] = molecular target: Gal(b1-4)GlcNAc(b1-3)Gal(b1-3)GalNAc
# Summary of the method: as §1
# [36] = molecular target: Gal(b1-4)GlcNAc(b1-3)Gal(b1-3)GlcNAc
# Summary of the method: as §1
# [37] = molecular target: Gal(b1-4)GlcNAc(b1-3)Gal(b1-4)Glc
# Summary of the method: as §1
# [38] = molecular target: Gal(b1-4)GlcNAc(b1-3)Gal(b1-4)GlcNAc
# Summary of the method: as §1
# [39] = molecular target: Gal(b1-4)GlcNAc(b1-3)Gal(b1-4)GlcNAc(b1-2)Man(a1-3)[Gal(b1-4)GlcNAc(b1-3)Gal(b1-4)GlcNAc(b1-2)Man(a1-6)]Man(b1-4)GlcNAc(b1-4)GlcNAc
# Summary of the method: as §1
binder,measurement,setting,value
B1,glycan array binding signal (z-score),[1],-0.336
same,glycan array binding signal (z-score),[2],-0.513
same,glycan array binding signal (z-score),Gal(b1-3)GlcNAc6S,0.394
same,glycan array binding signal (z-score),[3],-0.987
same,glycan array binding signal (z-score),[4],0.702
same,glycan array binding signal (z-score),[5],0.317
same,glycan array binding signal (z-score),[6],-1.68
same,glycan array binding signal (z-score),[7],-0.771
same,glycan array binding signal (z-score),[8],-0.176
same,glycan array binding signal (z-score),[9],-0.444
same,glycan array binding signal (z-score),[10],-0.199
same,glycan array binding signal (z-score),[11],0.299
same,glycan array binding signal (z-score),[12],1.23
same,glycan array binding signal (z-score),Gal(b1-4)Gal,0.137
same,glycan array binding signal (z-score),[13],0.995
same,glycan array binding signal (z-score),[14],-0.342
same,glycan array binding signal (z-score),Gal(b1-4)Glc,-0.256
same,glycan array binding signal (z-score),Gal(b1-4)Glc6S,-0.513
same,glycan array binding signal (z-score),Gal(b1-4)GlcNAc,-0.048
same,glycan array binding signal (z-score),[15],-0.673
same,glycan array binding signal (z-score),Gal(b1-4)GlcNAc(b1-2)Man,0.263
same,glycan array binding signal (z-score),[16],-0.886
same,glycan array binding signal (z-score),[17],-0.557
same,glycan array binding signal (z-score),[18],-0.349
same,glycan array binding signal (z-score),[19],0.308
same,glycan array binding signal (z-score),[20],-0.777
same,glycan array binding signal (z-score),[21],0.271
same,glycan array binding signal (z-score),[22],1.54
same,glycan array binding signal (z-score),[23],-1.05
same,glycan array binding signal (z-score),[24],1.96
same,glycan array binding signal (z-score),[25],-0.838
same,glycan array binding signal (z-score),[26],-0.406
same,glycan array binding signal (z-score),[27],3.29
same,glycan array binding signal (z-score),[28],-0.233
same,glycan array binding signal (z-score),[29],-1.23
same,glycan array binding signal (z-score),[30],1.35
same,glycan array binding signal (z-score),[31],0.866
same,glycan array binding signal (z-score),[32],-0.656
same,glycan array binding signal (z-score),[33],-1.88
same,glycan array binding signal (z-score),[34],-0.835
same,glycan array binding signal (z-score),[35],0.126
same,glycan array binding signal (z-score),[36],-0.036
same,glycan array binding signal (z-score),[37],-0.024
same,glycan array binding signal (z-score),[38],0.86
same,glycan array binding signal (z-score),[39],-0.317

# Another view of some results above.
binder | measurement | setting | value
B1 | glycan array binding signal (z-score) | [11] | 0.299
same | glycan array binding signal (z-score) | Gal(b1-4)Glc | -0.256
same | glycan array binding signal (z-score) | [22] | 1.54
